Measurements taken from patent WO2011080050A2 (dated 2011).
No constants are given. Whether binding was seen depends on the method and setting. Binding can be weak; no strength is given.

Assays:
human CCL21 (human) [1] = assay: dot blot (legend of Figure 14)
human CCL21 (human) [2] = assay: dot blot, huCCL21 native, heated, heated and reduced, or heated, reduced and SDS treated; anti-human IgG detection

B1: MOR06935_g3-23_g3j (antibody, V domains shown)
VH: EVQLLESGGGLVQPGGSLRLSCAASGFTFNSYSMSWVRQAPGKGLEWVSAISMEGYSKSYADSVKGRFTISRDNSKNTLYLQMNSLRAEDTAVYYCARGYGYYFDVWGQGTLVTVSS
VL: SYELTQPLSVSVALGQTARITCGGDSIGSQYASWYQQKPGQAPVLVIYDDNERPSGIPERFSGSNSGNTATLTISRAQAGDEADYYCGSWDSNPTHVFGGGTKLTVLG
notes: also called QBP359; FW repaired germlined MOR06935
For B1, the binding (human CCL21 (human) [1]) was “binds” and the binding (human CCL21 (human) [2]) was “binds”.
